In the supplement of paper PMC12067093, “Discovery and optimisation of a covalent ligand for TRIM25 and its application to targeted protein ubiquitination” (Chemical Science, 2025):
Some of the results follow.

Chains of the proteins cited; added tags and fusions are not shown. Lines headed by an entry give the natural chain unless they say otherwise; changes in a name come on top.
UniProt P20585: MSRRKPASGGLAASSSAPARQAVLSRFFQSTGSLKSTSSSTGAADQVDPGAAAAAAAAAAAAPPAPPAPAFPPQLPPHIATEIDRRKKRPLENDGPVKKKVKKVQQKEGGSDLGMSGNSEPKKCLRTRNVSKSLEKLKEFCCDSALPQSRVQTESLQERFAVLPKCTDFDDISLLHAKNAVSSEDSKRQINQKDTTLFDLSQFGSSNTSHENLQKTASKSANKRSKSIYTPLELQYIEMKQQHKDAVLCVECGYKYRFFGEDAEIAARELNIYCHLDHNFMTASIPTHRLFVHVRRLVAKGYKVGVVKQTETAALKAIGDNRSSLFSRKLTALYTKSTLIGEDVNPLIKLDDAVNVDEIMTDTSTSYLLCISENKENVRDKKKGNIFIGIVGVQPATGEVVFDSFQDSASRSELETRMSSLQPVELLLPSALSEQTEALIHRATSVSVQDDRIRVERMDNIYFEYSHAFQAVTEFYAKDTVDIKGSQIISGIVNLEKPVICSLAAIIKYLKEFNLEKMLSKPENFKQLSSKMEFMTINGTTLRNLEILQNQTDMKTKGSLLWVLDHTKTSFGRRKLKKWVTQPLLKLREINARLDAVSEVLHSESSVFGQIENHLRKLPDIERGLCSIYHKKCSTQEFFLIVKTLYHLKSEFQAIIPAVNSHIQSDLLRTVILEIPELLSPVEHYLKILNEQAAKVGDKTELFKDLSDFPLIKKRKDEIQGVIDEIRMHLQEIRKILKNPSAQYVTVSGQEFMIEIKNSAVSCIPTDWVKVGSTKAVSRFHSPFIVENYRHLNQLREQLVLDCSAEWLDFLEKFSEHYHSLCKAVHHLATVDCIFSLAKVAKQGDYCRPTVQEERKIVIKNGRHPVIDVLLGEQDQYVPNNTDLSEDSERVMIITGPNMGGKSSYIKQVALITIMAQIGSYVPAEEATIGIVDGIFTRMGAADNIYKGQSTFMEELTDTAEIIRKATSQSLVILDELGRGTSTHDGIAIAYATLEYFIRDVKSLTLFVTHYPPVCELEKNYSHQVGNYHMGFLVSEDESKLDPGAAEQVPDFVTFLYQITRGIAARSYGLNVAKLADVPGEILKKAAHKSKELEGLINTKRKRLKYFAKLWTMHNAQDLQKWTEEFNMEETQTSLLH

Target: MSH3_P20585_1015_SLTLFVTHYPPVCELEK (UniProt P20585)
Assay: probe-labelled cysteine peptide fold change vs DMSO (competition) (log2 fold change); higher = less target engagement (more negative = stronger competition)
Conditions: THP-1, incubation time: 4 h
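Further: competitive chemoproteomic profiling in live THP-1 cells with an iodoacetamide desthiobiotin (IA-DTB) probe, comparing probe-labelled peptide intensities in compound-treated cells against DMSO-treated controls.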

Question: Which “probe-labelled cysteine peptide fold change” value (10 µM) does the source give for `CC1Cc2ccccc2N1C(=O)C1CCCN(C(=O)CCl)C1` (mixture of isomers) [TRIM25 ligand 11 (diastereomer mixture)] here?
Answer: The value was 0.262.

Question: What about the “probe-labelled cysteine peptide fold change” value (50 µM) of the same compound?
Answer: The value was 0.301.
